Data: US11510962B2 (Ferring B.V., priority 2012, dated 2022)

Experiment: solution-phase peptide synthesis
Settings: whole synthesis, acetate (4.5 to 10 wt. % acetic acid)

degarelix
final HPLC purity (run 1): 295%
final HPLC purity (run 2): 297.5%
